The values that follow come from publication PMC7822134.

Sequences of proteins named here, by UniProt entry; tags and fusion partners are left off.
UniProt Q15836: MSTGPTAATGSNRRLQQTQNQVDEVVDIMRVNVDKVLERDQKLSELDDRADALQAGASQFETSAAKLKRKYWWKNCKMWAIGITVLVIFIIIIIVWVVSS

Experiment [1] deals with CT442-FLAG (C. trachomatis serovar L2) (UniProt O84449). As to the kind of experiment: co-IP; HeLa cells transfected with 6×His-VAMP3 or 6×His-VAMP4 and infected with C. trachomatis serovar L2 Inc-FLAG strains; aTc at 7 hpi (20 hpi also for CT442-FLAG); lysates at time points from 15 to 30 hpi; anti-FLAG magnetic beads, Western blot for FLAG and 6×His. On the technique in general: Immunoblotting shows a protein as a band on a membrane.

For experiment [2], the target named is T1, VAMP4 fused to the T25 fragment of adenylate cyclase (pST25-VAMP4) (human) (UniProt O75379).
T1 sequence: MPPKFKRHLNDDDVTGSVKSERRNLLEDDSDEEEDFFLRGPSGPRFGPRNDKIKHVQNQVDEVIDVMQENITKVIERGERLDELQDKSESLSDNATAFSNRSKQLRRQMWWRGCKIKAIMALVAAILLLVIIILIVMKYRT
As to the kind of experiment: two-hybrid; bacterial adenylate cyclase-based two-hybrid (BACTH) in E. coli DHT1 (ΔcyaA); VAMP on T25 (pST25), Inc on T18 (pUT18C); M63 minimal medium plates at 30°C and quantitative β-galactosidase assay; positive = 5-fold over the negative controls (empty vector, IncE) in all three replicates.

Experiment [3] addresses VAMP3 fused to the T25 fragment of adenylate cyclase (pST25-VAMP3) (human) (UniProt Q15836). The experiment is described as above.
The target in another experiment is T2, 3×FLAG-VAMP4 (human) (UniProt O75379).
T2 sequence: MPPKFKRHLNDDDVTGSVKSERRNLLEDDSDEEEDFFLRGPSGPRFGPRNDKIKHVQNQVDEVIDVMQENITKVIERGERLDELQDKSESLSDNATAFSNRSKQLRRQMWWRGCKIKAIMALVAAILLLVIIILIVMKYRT
As to the kind of experiment: co-IP; uninfected HeLa cells cotransfected with 3×FLAG-VAMP3 or 3×FLAG-VAMP4 and an Inc-6×His; lysates at 24 h (50 mM Tris-HCl pH 7.4, 150 mM NaCl, 0.5% sodium deoxycholate, 0.1% SDS, 1% Triton X-100); anti-FLAG magnetic beads overnight at 4°C, FLAG peptide elution, Western blot.

Another experiment has as its target 3×FLAG-VAMP3 (human) (UniProt Q15836). Described as above.
In experiment [4] the target is CT223-FLAG (C. trachomatis serovar L2). The experiment in a line: co-IP; HeLa cells transfected with 6×His-VAMP3 or 6×His-VAMP4 and infected with C. trachomatis serovar L2 Inc-FLAG strains; aTc at 7 hpi (20 hpi also for CT442-FLAG); lysates at time points from 15 to 30 hpi; anti-FLAG magnetic beads, Western blot for FLAG and 6×His.
The target in experiment [5] is CT449-FLAG (C. trachomatis serovar L2). The experiment is described as above.
Experiment [6] has as its target CT226-FLAG (C. trachomatis serovar L2). The experiment is described as above.
In experiment [7] the target is CT813-FLAG (C. trachomatis serovar L2). The description is as above.
For experiment [8], the target named is IncF-FLAG (C. trachomatis serovar L2). The experiment is described as above.
In experiment [9] the target is CT222-FLAG (C. trachomatis serovar L2). Described as above.
Experiment [10] deals with IncA-FLAG (C. trachomatis serovar L2). Described as above.
The target in experiment [11] is IncG-FLAG (C. trachomatis serovar L2). The experiment is described as above.

Results are given in words; binding and its absence hold for the method and conditions named. For some assays here: Binding calls can cover weak binding; strength is not graded here. For some assays here: Where a sequence is shown, tags or fusion partners need not be part of it. For some assays here: In cells and extracts the contact can be indirect.

As to 6×His-VAMP3 (from UniProt Q15836 1-100), the binding result in experiment [1] is on record as “binds”.
Consider “CT006 fused to the T18 fragment of adenylate cyclase (pUT18C) (from UniProt O84009)”, for which the binding entry in [2] and in experiment [3] was “binds” throughout.
For “CT179 fused to the T18 fragment of adenylate cyclase (pUT18C) (C. trachomatis serovar L2)”, the binding entry in experiment [2] is on record as “binds”.
With CT179-6×His (C. trachomatis serovar L2), the binding result with 3×FLAG-VAMP4 (human) is recorded as “no binding”.
Turning to “CT222 fused to the T18 fragment of adenylate cyclase (pUT18C) (C. trachomatis serovar L2)”, in experiment [2], the binding result is “binds”.
Turning to CT222-6×His (C. trachomatis serovar L2), the binding entry with 3×FLAG-VAMP4 (human) was “binds”.
Consider “CT223 fused to the T18 fragment of adenylate cyclase (pUT18C-CT223) (C. trachomatis serovar L2)”, for which the binding result in experiment [2] was “binds”.
Turning to CT223-6×His (C. trachomatis serovar L2), the binding entry with 3×FLAG-VAMP4 (human) is listed as “binds”.
For the molecule “CT226 fused to the T18 fragment of adenylate cyclase (pUT18C-CT226) (C. trachomatis serovar L2)”, the binding result in experiment [2] was “binds”.
On to CT226-6×His (C. trachomatis serovar L2), for which the binding result in the experiment with 3×FLAG-VAMP4 (human) was “binds”.
As for “CT442 fused to the T18 fragment of adenylate cyclase (pUT18C) (from UniProt O84449)”, in [3], the binding entry is given as “binds”.
Turning to CT442-6×His (from UniProt O84449), the binding result with 3×FLAG-VAMP3 (human) is reported as “binds”.
Take “CT449 fused to the T18 fragment of adenylate cyclase (pUT18C) (C. trachomatis serovar L2)”: in experiment [2], the binding result is recorded as “binds”.
Consider CT449-6×His (C. trachomatis serovar L2), for which the binding result with 3×FLAG-VAMP4 (human) is given as “binds”.
For the molecule “CT813 fused to the T18 fragment of adenylate cyclase (pUT18C) (C. trachomatis serovar L2)”, the binding entry in [2] is “binds”.
Take CT813-6×His (C. trachomatis serovar L2): the binding entry with 3×FLAG-VAMP4 (human) is recorded as “binds”.
Take “IncA fused to the T18 fragment of adenylate cyclase (pUT18C-IncA) (C. trachomatis serovar L2)”: the binding result in [2] is listed as “binds”.
With IncA-6×His (C. trachomatis serovar L2), the binding entry with 3×FLAG-VAMP4 (human) is given as “binds”.
Take “IncC fused to the T18 fragment of adenylate cyclase (pUT18C) (C. trachomatis serovar L2)”: the binding entry in experiment [2] is listed as “binds”.
Still for that read-out and setting: the result for “IncF fused to the T18 fragment of adenylate cyclase (pUT18C-IncF) (C. trachomatis serovar L2)” reads “binds”.
Regarding IncF-6×His (C. trachomatis serovar L2), the binding entry in the experiment with 3×FLAG-VAMP4 (human) is on record as “binds”.
Regarding “IncG fused to the T18 fragment of adenylate cyclase (pUT18C) (C. trachomatis serovar L2)”, the binding entry in experiment [2] is reported as “binds”.
For the molecule IncG-6×His (C. trachomatis serovar L2), the binding entry in the experiment with 3×FLAG-VAMP4 (human) is listed as “binds”.

B1: 6×His-VAMP4 (protein, UniProt O75379 1-141)
chain: MPPKFKRHLNDDDVTGSVKSERRNLLEDDSDEEEDFFLRGPSGPRFGPRNDKIKHVQNQVDEVIDVMQENITKVIERGERLDELQDKSESLSDNATAFSNRSKQLRRQMWWRGCKIKAIMALVAAILLLVIIILIVMKYRT
For the molecule B1, the binding result in experiment [4], in experiment [5], in [6], in experiment [7], in experiment [8] and in [9] was “no binding” in each case. The binding entry in [10] and in experiment [11] was “no binding” each time.
